Test results reported in patent US7601713B2, “Kinase inhibitors and their uses” (Rigel Pharmaceuticals, Inc., priority 2005, dated 2009).
Some of these results come from one statement about several compounds together.

Tests used:
[1] = test system: JAK kinases (JAK1 and JAK3); assay: JAK inhibition: IL-4-stimulated CD23 upregulation in human Ramos B-cells, FACS; type: cell-based; settings: IL-4 stimulated Ramos B-cells, read-out: IC50, inhibition of JAK kinases in cellular assay
Experimental: JAK inhibition was tested in human Ramos B-cells activated with IL-4. Twenty to 24 hours post stimulation, the cells are stained for upregulation of CD23 and analyzed by FACS. Stimulation of the B-cells with IL-4 leads to the activation of the JAK/STAT pathway through phosphorylation of the JAK kinase JAK1 and JAK3, which in turn phosphorylate and activate transcription of factor […].
For the assay, human Ramos B-cells (ATCC, Catalog No. CRL-1596) are cultured in RPMI 1640 medium (Cellgro, Catalog No. 10-040-CM) containing 10% fetal bovine serum (JRH, Catalog No. 12106-500M) according to the propagation protocol supplied with the cells, and maintained at a density of approximately 3.5×10^5 cells/ml. The day before the assay, the cells are diluted to 3.5×10^5 cells/ml to insure they are in the logarithmic growth phase. The cells are spun down, and suspended in RPMI 1640 medium containing 5% fetal bovine serum to a density of 3.5×10^4 cells/ml and aliquots dispensed into a 96-well tissue culture plate. Cells are incubated with test compound (dissolved in DMSO) or DMSO (control) for 1 hr at 37° C. and then stimulated with IL-4 (Pepotech, Catalog No. 200-04) for 20-24 hours (final concentration is 50 Units/ml). Cells are then spun down, stained with anti-CD23-PE antibody (BD Pharmigen, Catalog No. 555711) and analyzed by FACS.

Axl kinase = target: T1, Axl kinase (Homo sapiens, UniProt P30530); assay: Phospho-Akt in-cell Western assay (Axl antibody cross-linking, Hela cells); type: cell-based; settings: phospho-Akt readout, read-out: IC50, inhibition of Axl kinase
T1 construct: endogenous in cells; host or cells: HeLa cells
T1 sequence (P30530 26-894): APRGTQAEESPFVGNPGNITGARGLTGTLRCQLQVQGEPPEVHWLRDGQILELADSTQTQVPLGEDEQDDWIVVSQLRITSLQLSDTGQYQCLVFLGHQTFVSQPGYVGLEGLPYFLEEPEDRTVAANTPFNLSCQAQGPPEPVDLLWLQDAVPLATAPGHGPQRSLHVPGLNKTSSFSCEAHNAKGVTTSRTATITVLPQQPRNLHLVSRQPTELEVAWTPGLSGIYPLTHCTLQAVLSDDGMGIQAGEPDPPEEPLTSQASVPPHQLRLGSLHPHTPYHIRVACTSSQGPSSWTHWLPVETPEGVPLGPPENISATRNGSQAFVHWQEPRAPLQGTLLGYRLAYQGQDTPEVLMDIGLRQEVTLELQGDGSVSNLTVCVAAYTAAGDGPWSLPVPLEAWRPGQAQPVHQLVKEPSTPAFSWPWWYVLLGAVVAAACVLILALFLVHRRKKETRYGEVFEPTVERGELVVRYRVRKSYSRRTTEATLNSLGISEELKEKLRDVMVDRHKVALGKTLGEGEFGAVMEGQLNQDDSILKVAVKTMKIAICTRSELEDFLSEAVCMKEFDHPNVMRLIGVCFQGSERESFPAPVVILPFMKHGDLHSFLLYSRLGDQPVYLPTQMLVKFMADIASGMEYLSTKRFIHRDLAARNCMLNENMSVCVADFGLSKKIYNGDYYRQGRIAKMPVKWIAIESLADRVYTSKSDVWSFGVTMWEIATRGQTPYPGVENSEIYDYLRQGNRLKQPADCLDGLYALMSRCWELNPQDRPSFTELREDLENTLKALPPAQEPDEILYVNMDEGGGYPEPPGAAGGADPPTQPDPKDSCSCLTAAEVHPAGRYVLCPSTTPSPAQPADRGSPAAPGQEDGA
Experimental: The compounds of the invention were tested in the following assay for their ability to inhibit Axl activity.
Phospho-Akt in-Cell Western Assay
Starvation medium: For Axl stimulation: 0.5% FCS (fetal calf serum) in DMEM, plus Axl/Fc (extracellular domain of AXL fused to immunoglobulin Fc region) (R&D, 154-AL) 500 ng/mL.
Axl antibody cross-linking: • 1st: Mouse anti-Axl (R&D, MAB 154). • 2nd: Biotin-SP-conjugated AffiniPure goat anti-mouse IgG (H+L) (Jackson ImmunoResearch #115-065-003).
Primary antibody: Rabbit anti-human Phospho-Akt antibody (Cell Signaling 9271): 1×250 diluted in blocking buffer.
Secondary antibody: HRP (horse radish peroxidase)-conjugated Goat anti-Rabbit secondary, stock solution: Jackson lmmunoResearch (Goat anti-Rabbit HRP, #111-035-144) 1:1 diluted in glycerol, store at −20° C. The working solution: 1×2000 dilution of stock in blocking buffer.
A 96 well TC (tissue culture treated) plate was coated with 10 μg/mL poly-L-Lysine at 37° C. for 30 min, washed twice with PBS, and air-dried for 5 minutes before cells were added. […]
The resulting chemiluminescence was read with a Luminomitor within 10 minutes to minimize changes in signal intensity. After reading the chemiluminescence, the cells were washed 1× with wash buffer and 1× with PBS by plate washer. […]

Syk kinase = Syk kinase (Homo sapiens, UniProt P43405); assay: cell-based Syk assay; settings: read-out: IC50, inhibition of Syk kinase
PRK1 kinase = PRK1 kinase (Homo sapiens, UniProt Q16512); assay: PRK1 kinase inhibition; type: biochemical

Substance	IC50 [1] [µM]	IC50 (Axl kinase) [µM]	IC50 (Syk kinase) [µM]	IC50 (PRK1 kinase) [µM]
Racemic-(5-exo,6- exo)-N4-(4,7- methano-1,2- benzisoxazol- 3a,4,5,6,7,7a- hexahydro-3-phenyl- 5-aminocarbonyl-6- yl)-N2-(3- methyl)phenyl-1H- pyrrolo[2,3- d]pyrimidine-2,4- diamine [Compound 217]	< 10	> 10	> 10	–
Racemic-(5-exo,6- exo)-N4-(4,7- methano-1,2- benzisoxazol- 3a,4,5,6,7,7a- hexahydro-3-phenyl- 6-aminocarbonyl-5- yl)-N2-(3- methyl)phenyl-1H- pyrrolo[2,3- d]pyrimidine-2,4- diamine [Compound 218]	< 5	> 10	< 10	< 5
